Two molecules from publication PMC13196150 can be followed below.

The chains behind the UniProt entries cited, without tags or fusion partners. Residues count along the entry.
UniProt Q3ZCQ8, residues 45-353: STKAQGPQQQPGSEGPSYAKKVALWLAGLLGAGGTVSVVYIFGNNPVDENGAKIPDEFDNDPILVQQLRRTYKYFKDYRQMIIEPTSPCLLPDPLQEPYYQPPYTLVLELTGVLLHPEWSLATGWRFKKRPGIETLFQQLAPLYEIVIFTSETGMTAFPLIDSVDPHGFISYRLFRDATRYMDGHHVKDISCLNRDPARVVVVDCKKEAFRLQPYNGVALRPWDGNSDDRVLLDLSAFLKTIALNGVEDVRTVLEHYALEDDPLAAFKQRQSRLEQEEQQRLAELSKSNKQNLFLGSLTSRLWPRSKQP

For test [1], the target named is T1, GLUT10/V5 (glucose transporter 10, V5-tagged) (mouse) (UniProt Q8VHD6).
T1 sequence: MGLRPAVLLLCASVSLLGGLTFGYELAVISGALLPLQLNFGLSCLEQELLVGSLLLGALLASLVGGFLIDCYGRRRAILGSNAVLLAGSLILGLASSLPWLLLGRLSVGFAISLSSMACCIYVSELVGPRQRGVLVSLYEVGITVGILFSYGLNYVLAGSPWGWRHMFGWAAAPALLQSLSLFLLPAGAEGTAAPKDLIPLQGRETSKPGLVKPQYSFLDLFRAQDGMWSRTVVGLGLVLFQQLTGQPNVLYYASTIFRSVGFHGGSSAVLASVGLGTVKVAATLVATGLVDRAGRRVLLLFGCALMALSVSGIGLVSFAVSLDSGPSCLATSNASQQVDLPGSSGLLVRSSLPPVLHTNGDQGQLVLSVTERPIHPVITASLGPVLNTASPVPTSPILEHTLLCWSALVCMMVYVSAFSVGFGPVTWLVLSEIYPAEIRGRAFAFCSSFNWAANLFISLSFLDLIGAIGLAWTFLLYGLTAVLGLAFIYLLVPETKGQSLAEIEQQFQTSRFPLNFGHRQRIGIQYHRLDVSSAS
Nature of the test: co-IP; whole-cell lysates of T-REx-293 cells expressing GLUT10/V5; IP with anti-V5 or, reciprocally, anti-TIM50 antibodies against control IgG; immunoblot for V5 and TIM50.

Test [2] has as its target TIM50 (mitochondrial inner membrane protein, mitochondrial translocase) (human (endogenous in T-REx-293)) (UniProt Q3ZCQ8). Described as above.

Results are given in words; binding and its absence hold for the method and conditions named. In cells and extracts the contact can be indirect. Some binding calls cover weakened binding; strength is not graded here. Sequences can lack the tags named with a protein.

Consider “TIM50 (mitochondrial inner membrane protein, mitochondrial translocase) (from UniProt Q3ZCQ8 45-353)”, for which the binding result in test [1] is reported as “binds”.

B1: GLUT10/V5 (glucose transporter 10, V5-tagged) (protein, UniProt Q8VHD6 1-536)
chain: MGLRPAVLLLCASVSLLGGLTFGYELAVISGALLPLQLNFGLSCLEQELLVGSLLLGALLASLVGGFLIDCYGRRRAILGSNAVLLAGSLILGLASSLPWLLLGRLSVGFAISLSSMACCIYVSELVGPRQRGVLVSLYEVGITVGILFSYGLNYVLAGSPWGWRHMFGWAAAPALLQSLSLFLLPAGAEGTAAPKDLIPLQGRETSKPGLVKPQYSFLDLFRAQDGMWSRTVVGLGLVLFQQLTGQPNVLYYASTIFRSVGFHGGSSAVLASVGLGTVKVAATLVATGLVDRAGRRVLLLFGCALMALSVSGIGLVSFAVSLDSGPSCLATSNASQQVDLPGSSGLLVRSSLPPVLHTNGDQGQLVLSVTERPIHPVITASLGPVLNTASPVPTSPILEHTLLCWSALVCMMVYVSAFSVGFGPVTWLVLSEIYPAEIRGRAFAFCSSFNWAANLFISLSFLDLIGAIGLAWTFLLYGLTAVLGLAFIYLLVPETKGQSLAEIEQQFQTSRFPLNFGHRQRIGIQYHRLDVSSAS
As to B1, in test [2], the binding entry was “binds”.
